## Assay results

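A panel of P. falciparum strains inside erythrocytes is exposed to compounds for three days, then a DNA-binding dye reports the amount of parasite DNA. Each compound was titrated across a series from about 0.000037 to 29 µM. The number is the fitted AC50, the concentration giving a half-maximal change in signal; a lower value means higher potency, whether the curve shows a decrease or an increase. Calls follow the curve class and fit quality: every row here is inconclusive, covering signal-raising curves and weak, poorly fitted, partial or highest-dose-only inhibition curves.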

Values are in µM. All entries here are filed as inconclusive. These entries are mostly ones the record files as inconclusive; other results of the assay are not listed here. Potencies fitted to partial, single-point or poorly fitting curves are rough. Some entries filed as inconclusive have a full curve. An entry listed twice with the same setting is a separate test.

compound | setting | Potency (µM) | remark
CNC1(c2ccccc2Cl)CCCCC1=O (stereo unspecified) | CP269 | 19.01 | inhibitor, partial curve, poor fit
CNC1(c2ccccc2Cl)CCCCC1=O (stereo unspecified) | PC49 | 10 | inhibitor, single point
CNC1(c2ccccc2Cl)CCCCC1=O (stereo unspecified) | DIV17 | 26.85 | inhibitor, partial curve, poor fit
CNC1(c2ccccc2Cl)CCCCC1=O (stereo unspecified) | CP250 | 1.585 | inhibitor, full curve
CNC1(c2ccccc2Cl)CCCCC1=O (stereo unspecified) | Dd2 | 8.912 | inhibitor, single point
CNC1(c2ccccc2Cl)CCCCC1=O (stereo unspecified) | N140 | 12.59 | inhibitor, partial curve, poor fit
CNC1(c2ccccc2Cl)CCCCC1=O (stereo unspecified) | CP191 | 7.943 | inhibitor, partial curve, poor fit
CNC1(c2ccccc2Cl)CCCCC1=O (stereo unspecified) | SC27B | 1.778 | inhibitor, partial curve, poor fit
CNC1(c2ccccc2Cl)CCCCC1=O (stereo unspecified) | parasite line A | 2.818 | inhibitor, single point
CNC1(c2ccccc2Cl)CCCCC1=O (stereo unspecified) | AS120 | 10 | inhibitor, partial curve
CNC1(c2ccccc2Cl)CCCCC1=O (stereo unspecified) | ATS189 | 11.22 | inhibitor, partial curve
CNC1(c2ccccc2Cl)CCCCC1=O (stereo unspecified) | CP305 | 9.528 | inhibitor, partial curve, poor fit
CNC1(c2ccccc2Cl)CCCCC1=O (stereo unspecified) | P94_40 | 0.0178 | inhibitor, full curve, poor fit
CNC1(c2ccccc2Cl)CCCCC1=O (stereo unspecified) | CP203 | 6.746 | inhibitor, partial curve, poor fit
CNC1(c2ccccc2Cl)CCCCC1=O (stereo unspecified) | Dd2 | 10 | inhibitor, single point
CC1(C)O[C@H]2C[C@@H]3[C@H]4CCC5=CC(=O)C=C[C@]5(C)[C@@]4(F)[C@@H](O)C[C@]3(C)[C@]2(C(=O)CO)O1 | W2 | 16.94 | inhibitor, single point
CC1(C)O[C@H]2C[C@@H]3[C@H]4CCC5=CC(=O)C=C[C@]5(C)[C@@]4(F)[C@@H](O)C[C@]3(C)[C@]2(C(=O)CO)O1 | CP266 | 0.7569 | inhibitor, partial curve, poor fit
CC1(C)O[C@H]2C[C@@H]3[C@H]4CCC5=CC(=O)C=C[C@]5(C)[C@@]4(F)[C@@H](O)C[C@]3(C)[C@]2(C(=O)CO)O1 | DIV14 | 16.94 | inhibitor, single point
CC1(C)O[C@H]2C[C@@H]3[C@H]4CCC5=CC(=O)C=C[C@]5(C)[C@@]4(F)[C@@H](O)C[C@]3(C)[C@]2(C(=O)CO)O1 | P94_40 | 10 | inhibitor, single point
CC1(C)O[C@H]2C[C@@H]3[C@H]4CCC5=CC(=O)C=C[C@]5(C)[C@@]4(F)[C@@H](O)C[C@]3(C)[C@]2(C(=O)CO)O1 | DIV30 | 19.01 | inhibitor, single point
CC1(C)O[C@H]2C[C@@H]3[C@H]4CCC5=CC(=O)C=C[C@]5(C)[C@@]4(F)[C@@H](O)C[C@]3(C)[C@]2(C(=O)CO)O1 | CP297 | 0.012 | inhibitor, full curve, poor fit
CC1(C)O[C@H]2C[C@@H]3[C@H]4CCC5=CC(=O)C=C[C@]5(C)[C@@]4(F)[C@@H](O)C[C@]3(C)[C@]2(C(=O)CO)O1 | AS120 | 10 | inhibitor, single point
CC1(C)O[C@H]2C[C@@H]3[C@H]4CCC5=CC(=O)C=C[C@]5(C)[C@@]4(F)[C@@H](O)C[C@]3(C)[C@]2(C(=O)CO)O1 | ICS | 11.22 | inhibitor, single point
CC1(C)O[C@H]2C[C@@H]3[C@H]4CCC5=CC(=O)C=C[C@]5(C)[C@@]4(F)[C@@H](O)C[C@]3(C)[C@]2(C(=O)CO)O1 | PAD | 10 | inhibitor, single point
Cc1cc(-c2ccccc2)nnc1NCCN1CCOCC1 | CP291 | 21.33 | inhibitor, single point
Cc1cc(-c2ccccc2)nnc1NCCN1CCOCC1 | TAB109 | 11.22 | inhibitor, single point
Cc1cc(-c2ccccc2)nnc1NCCN1CCOCC1 | DIV14 | 7.569 | inhibitor, partial curve
Cc1cc(-c2ccccc2)nnc1NCCN1CCOCC1 | ECU | 7.943 | inhibitor, partial curve
Cc1cc(-c2ccccc2)nnc1NCCN1CCOCC1 | PC15 | 17.78 | inhibitor, single point
Cc1cc(-c2ccccc2)nnc1NCCN1CCOCC1 | 7G8 | 10 | inhibitor, partial curve
Cc1cc(-c2ccccc2)nnc1NCCN1CCOCC1 | CP266 | 21.33 | inhibitor, partial curve, poor fit
Cc1cc(-c2ccccc2)nnc1NCCN1CCOCC1 | Dd2 | 15.85 | inhibitor, single point
Cc1cc(-c2ccccc2)nnc1NCCN1CCOCC1 | DIV30 | 12 | inhibitor, partial curve
Cc1cc(-c2ccccc2)nnc1NCCN1CCOCC1 | CP325 | 0.0005 | inhibitor
Cc1cc(-c2ccccc2)nnc1NCCN1CCOCC1 | ICS | 6.31 | inhibitor, partial curve
Cc1cc(-c2ccccc2)nnc1NCCN1CCOCC1 | PAD | 5.012 | inhibitor, partial curve
COc1ccc(C(CN(C)C)C2(O)CCCCC2)cc1 (stereo unspecified) | CP194 | 12 | inhibitor, partial curve, poor fit
COc1ccc(C(CN(C)C)C2(O)CCCCC2)cc1 (stereo unspecified) | PC26 | 13.46 | inhibitor, single point
COc1ccc(C(CN(C)C)C2(O)CCCCC2)cc1 (stereo unspecified) | CP266 | 16.94 | inhibitor, single point
COc1ccc(C(CN(C)C)C2(O)CCCCC2)cc1 (stereo unspecified) | CP203 | 15.1 | inhibitor, single point
COc1ccc(C(CN(C)C)C2(O)CCCCC2)cc1 (stereo unspecified) | DIV17 | 19.01 | inhibitor, single point
COc1ccc(C(CN(C)C)C2(O)CCCCC2)cc1 (stereo unspecified) | CP297 | 16.94 | inhibitor, single point
COc1ccc(C(CN(C)C)C2(O)CCCCC2)cc1 (stereo unspecified) | GB4 | 7.569 | inhibitor, partial curve
COc1ccc(C(CN(C)C)C2(O)CCCCC2)cc1 (stereo unspecified) | CP325 | 7.569 | inhibitor, partial curve, poor fit
COc1ccc(C(CN(C)C)C2(O)CCCCC2)cc1 (stereo unspecified) | CP265 | 10 | inhibitor, single point
COc1ccc(C(CN(C)C)C2(O)CCCCC2)cc1 (stereo unspecified) | CP335 | 19.01 | inhibitor, partial curve, poor fit
COc1ccc(C(CN(C)C)C2(O)CCCCC2)cc1 (stereo unspecified) | Dd2 | 10 | inhibitor, partial curve
COc1ccc(C(CN(C)C)C2(O)CCCCC2)cc1 (stereo unspecified) | N140 | 19.95 | inhibitor, single point

3 of the entries, repeated:

- CNC1(c2ccccc2Cl)CCCCC1=O (stereo unspecified) [Dd2] | Potency 8.912 µM (inhibitor, single point)
- Cc1cc(-c2ccccc2)nnc1NCCN1CCOCC1 [DIV14] | Potency 7.569 µM (inhibitor, partial curve)
- Cc1cc(-c2ccccc2)nnc1NCCN1CCOCC1 [DIV30] | Potency 12 µM (inhibitor, partial curve)

The results are deposited in PubChem (AID504749; NCATS, 2011).